This assay concerns the target CXCR4 (human (endogenous in Jurkat)) (UniProt P61073). Kind of assay: FRET or BRET; Jurkat CD4 T cells labelled on ice with PE-anti-CXCR4 (12G5) and APC-anti-CD2 (RPA-2.10) or APC-anti-CD3ε (UCHT1); 37°C 30 min with or without 500 ng HIV(NL4-3) viral particles; cold acid wash (pH 2.0) to remove surface antibodies; intracellular FRET read by flow cytometry (FACSCalibur). A general note: BRET reads energy transfer from a luciferase to a nearby fluorophore.

By UniProt entry, the sequences of proteins in these tests, tags left out. Residues count along the entry.
UniProt P61073: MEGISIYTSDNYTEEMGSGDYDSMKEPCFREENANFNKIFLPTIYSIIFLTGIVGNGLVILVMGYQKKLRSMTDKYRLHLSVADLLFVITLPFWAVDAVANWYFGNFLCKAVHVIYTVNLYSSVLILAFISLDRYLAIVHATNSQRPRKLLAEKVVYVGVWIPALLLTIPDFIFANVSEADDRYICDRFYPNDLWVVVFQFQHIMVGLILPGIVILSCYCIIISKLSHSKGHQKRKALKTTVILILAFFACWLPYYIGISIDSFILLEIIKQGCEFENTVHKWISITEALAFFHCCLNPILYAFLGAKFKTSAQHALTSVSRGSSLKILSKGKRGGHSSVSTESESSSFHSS
UniProt P07766, residues 23-207: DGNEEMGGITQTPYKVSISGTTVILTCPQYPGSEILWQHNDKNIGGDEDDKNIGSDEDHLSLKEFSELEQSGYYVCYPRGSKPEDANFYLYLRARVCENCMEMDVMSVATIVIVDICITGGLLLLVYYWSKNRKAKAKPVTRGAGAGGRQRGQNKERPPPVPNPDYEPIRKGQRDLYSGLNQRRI

No constants are given. Whether binding was seen depends on the method and setting. In cells and extracts the contact can be indirect. Some entries that bind do so weakly or less than the wild type.

Our source for the binding values is paper PMC8571718.

For “CD3ε chain (from UniProt P07766 23-207) (receptor)”, the binding entry is recorded as “binds”.
